Results are given in words; binding and its absence hold for the method and conditions named. In cells and extracts the contact can be indirect. Some results given as binding are weak or reduced against the parent protein; the word gives no strength.
Target: wild type P-gp, full length (transfected) (UniProt P08183)
Assay: co-IP; cells transfected with P-gp, MGAT3 plus P-gp, MGAT3 plus P-gp Mut2, or full-length and truncated P-gp; immunoprecipitation and western blot

Sequences of proteins named here, by UniProt entry; tags and fusion partners are left off.
UniProt P08183: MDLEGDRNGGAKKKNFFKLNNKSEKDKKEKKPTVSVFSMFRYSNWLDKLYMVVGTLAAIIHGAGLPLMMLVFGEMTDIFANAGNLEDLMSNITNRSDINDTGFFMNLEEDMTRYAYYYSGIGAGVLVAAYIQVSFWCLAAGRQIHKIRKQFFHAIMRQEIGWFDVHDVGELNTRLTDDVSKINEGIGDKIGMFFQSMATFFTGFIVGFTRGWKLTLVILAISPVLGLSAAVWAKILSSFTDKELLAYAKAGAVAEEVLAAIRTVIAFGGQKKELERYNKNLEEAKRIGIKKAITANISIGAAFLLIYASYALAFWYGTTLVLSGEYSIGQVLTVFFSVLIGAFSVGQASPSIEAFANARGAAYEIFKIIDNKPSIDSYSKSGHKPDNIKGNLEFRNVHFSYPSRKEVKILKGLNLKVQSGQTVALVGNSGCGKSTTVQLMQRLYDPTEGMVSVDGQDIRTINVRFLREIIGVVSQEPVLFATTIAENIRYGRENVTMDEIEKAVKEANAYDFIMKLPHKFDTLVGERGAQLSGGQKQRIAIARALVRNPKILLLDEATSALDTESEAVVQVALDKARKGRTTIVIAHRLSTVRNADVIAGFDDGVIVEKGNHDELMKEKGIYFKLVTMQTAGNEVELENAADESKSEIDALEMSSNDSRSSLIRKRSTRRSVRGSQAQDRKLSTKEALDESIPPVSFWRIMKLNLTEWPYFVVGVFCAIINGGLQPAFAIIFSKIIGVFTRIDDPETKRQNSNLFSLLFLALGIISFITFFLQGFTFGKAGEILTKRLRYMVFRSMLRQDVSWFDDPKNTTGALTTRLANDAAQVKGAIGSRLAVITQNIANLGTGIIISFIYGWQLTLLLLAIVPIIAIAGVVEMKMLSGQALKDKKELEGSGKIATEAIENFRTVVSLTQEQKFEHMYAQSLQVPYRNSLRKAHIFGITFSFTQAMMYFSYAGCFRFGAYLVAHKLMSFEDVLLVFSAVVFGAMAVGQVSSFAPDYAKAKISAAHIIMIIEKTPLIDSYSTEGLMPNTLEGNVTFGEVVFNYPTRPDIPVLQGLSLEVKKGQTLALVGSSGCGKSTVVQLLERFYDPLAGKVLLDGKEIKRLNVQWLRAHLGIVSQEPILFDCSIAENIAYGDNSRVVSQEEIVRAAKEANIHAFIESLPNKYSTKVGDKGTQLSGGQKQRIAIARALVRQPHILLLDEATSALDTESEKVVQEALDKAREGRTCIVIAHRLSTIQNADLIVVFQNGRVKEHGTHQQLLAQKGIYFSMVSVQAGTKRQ

- binding: binds
B1: VPS4A (protein, UniProt Q9UN37 1-437)
chain: MTTSTLQKAIDLVTKATEEDKAKNYEEALRLYQHAVEYFLHAIKYEAHSDKAKESIRAKCVQYLDRAEKLKDYLRSKEKHGKKPVKENQSEGKGSDSDSEGDNPEKKKLQEQLMGAVVMEKPNIRWNDVAGLEGAKEALKEAVILPIKFPHLFTGKRTPWRGILLFGPPGTGKSYLAKAVATEANNSTFFSVSSSDLMSKWLGESEKLVKNLFELARQHKPSIIFIDEVDSLCGSRNENESEAARRIKTEFLVQMQGVGNNNDGTLVLGATNIPWVLDSAIRRRFEKRIYIPLPEEAARAQMFRLHLGSTPHNLTDANIHELARKTEGYSGADISIIVRDSLMQPVRKVQSATHFKKVCGPSRTNPSMMIDDLLTPCSPGDPGAMEMTWMDVPGDKLLEPVVCMSDMLRSLATTRPTVNADDLLKVKKFSEDFGQES

From publication PMC11388069
